Results published in the supplement of paper PMC8728848.
Some of the results follow.

Key:
Experiment in all cases: glycan array binding signal (z-score within array); higher = stronger binding
Conditions in all cases: glycan notation: IUPAC condensed, linker removed
[1] = molecular target: Neu5Ac(a2-3)Gal(b1-4)GlcNAc(b1-6)GalNAc
Procedure, shortened: (§1)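 The binding signal is a Z-score computed within each array. Data were drawn from 3228 arrays in the Consortium for Functional Glycomics database, restricted to those with a known protein sequence. Scores were averaged over arrays of the same protein sequence at different concentrations or buffers, and over linkers, and negative values can be taken as non-binding.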

[2] = molecular target: Neu5Ac(a2-3)Gal(b1-4)GlcNAc(b1-6)[Gal(b1-3)]GalNAc
Procedure, shortened: as §1

[3] = molecular target: Neu5Ac(a2-3)Gal(b1-4)GlcNAc(b1-6)[Neu5Ac(a2-3)Gal(b1-3)]GalNAc
Procedure, shortened: as §1

[4] = molecular target: Neu5Ac(a2-3)Gal(b1-4)GlcNAc6S
Procedure, shortened: as §1

[5] = molecular target: Neu5Ac(a2-3)Gal(b1-4)[Fuc(a1-3)]GlcNAc
Procedure, shortened: as §1

[6] = molecular target: Neu5Ac(a2-3)Gal(b1-4)[Fuc(a1-3)]GlcNAc(b1-2)Man
Procedure, shortened: as §1

[7] = molecular target: Neu5Ac(a2-3)Gal(b1-4)[Fuc(a1-3)]GlcNAc(b1-3)Gal
Procedure, shortened: as §1

[8] = molecular target: Neu5Ac(a2-3)Gal(b1-4)[Fuc(a1-3)]GlcNAc(b1-3)Gal(b1-4)GlcNAc
Procedure, shortened: as §1

[9] = molecular target: Neu5Ac(a2-3)Gal(b1-4)[Fuc(a1-3)]GlcNAc(b1-3)Gal(b1-4)[Fuc(a1-3)]GlcNAc(b1-3)Gal(b1-4)[Fuc(a1-3)]GlcNAc
Procedure, shortened: as §1

[10] = molecular target: Neu5Ac(a2-3)Gal(b1-4)[Fuc(a1-3)]GlcNAc(b1-3)GalNAc
Procedure, shortened: as §1

[11] = molecular target: Neu5Ac(a2-3)Gal(b1-4)[Fuc(a1-3)]GlcNAc(b1-6)[Gal(b1-3)]GalNAc
Procedure, shortened: as §1

[12] = molecular target: Neu5Ac(a2-3)Gal(b1-4)[Fuc(a1-3)]GlcNAc(b1-6)[Neu5Ac(a2-3)Gal(b1-3)]GalNAc
Procedure, shortened: as §1

[13] = molecular target: Neu5Ac(a2-3)Gal(b1-4)[Fuc(a1-3)]GlcNAc6S
Procedure, shortened: as §1

[14] = molecular target: Neu5Ac(a2-3)Gal6S(b1-4)GlcNAc
Procedure, shortened: as §1

[15] = molecular target: Neu5Ac(a2-3)Gal6S(b1-4)[Fuc(a1-3)]GlcNAc
Procedure, shortened: as §1

Neu5Ac(a2-3)GalNAc = molecular target: Neu5Ac(a2-3)GalNAc
Procedure, shortened: as §1

[16] = molecular target: Neu5Ac(a2-3)GalNAc(b1-4)GlcNAc
Procedure, shortened: as §1

[17] = molecular target: Neu5Ac(a2-3)[GalNAc(b1-4)]Gal(b1-4)Glc
Procedure, shortened: as §1

[18] = molecular target: Neu5Ac(a2-3)[GalNAc(b1-4)]Gal(b1-4)GlcNAc
Procedure, shortened: as §1

[19] = molecular target: Neu5Ac(a2-3)[GalNAc(b1-4)]Gal(b1-4)GlcNAc(b1-3)GalNAc
Procedure, shortened: as §1

[20] = molecular target: Neu5Ac(a2-3)[Neu5Ac(a2-6)]GalNAc
Procedure, shortened: as §1

Neu5Ac(a2-6)Gal = molecular target: Neu5Ac(a2-6)Gal
Procedure, shortened: as §1

[21] = molecular target: Neu5Ac(a2-6)Gal(b1-3)GlcNAc(b1-3)[Gal(b1-4)GlcNAc(b1-6)]Gal(b1-4)Glc
Procedure, shortened: as §1

Neu5Ac(a2-6)Gal(b1-4)Glc = molecular target: Neu5Ac(a2-6)Gal(b1-4)Glc
Procedure, shortened: as §1

[22] = molecular target: Neu5Ac(a2-6)Gal(b1-4)GlcNAc
Procedure, shortened: as §1

[23] = molecular target: Neu5Ac(a2-6)Gal(b1-4)GlcNAc(b1-2)Man
Procedure, shortened: as §1

[24] = molecular target: Neu5Ac(a2-6)Gal(b1-4)GlcNAc(b1-2)Man(a1-3)Man(b1-4)GlcNAc(b1-4)GlcNAc
Procedure, shortened: as §1

[25] = molecular target: Neu5Ac(a2-6)Gal(b1-4)GlcNAc(b1-2)Man(a1-3)[Gal(b1-4)GlcNAc(b1-2)Man(a1-6)]Man(b1-4)GlcNAc(b1-4)GlcNAc
Procedure, shortened: as §1

[26] = molecular target: Neu5Ac(a2-6)Gal(b1-4)GlcNAc(b1-2)Man(a1-3)[GlcNAc(b1-2)Man(a1-6)]Man(b1-4)GlcNAc(b1-4)GlcNAc
Procedure, shortened: as §1

[27] = molecular target: Neu5Ac(a2-6)Gal(b1-4)GlcNAc(b1-2)Man(a1-3)[GlcNAc(b1-4)][Neu5Ac(a2-6)Gal(b1-4)GlcNAc(b1-2)Man(a1-6)]Man(b1-4)GlcNAc(b1-4)GlcNAc
Procedure, shortened: as §1

[28] = molecular target: Neu5Ac(a2-6)Gal(b1-4)GlcNAc(b1-2)Man(a1-3)[Man(a1-6)]Man(b1-4)GlcNAc(b1-4)GlcNAc
Procedure, shortened: as §1

B1: Agalectin (Anopheles gambiae) (protein)
chain: MSNRPFTAKFPRYPENGDEVFIRGKLKDDAKSFSVNFCLPRPAQVAEHQTPPYIALHFKTIYDERDDTSRVVLNWKNLQWQQEEVLDNYWHVDRSQTFRVVFRLHEDCIKVFVNSVDHPPDYQFPVQLPLDQIESIELWDDVEHVEEISFRYDNGNSY
glycan array binding signal (z-score) [1]: -0.257 | glycan array binding signal (z-score) [2]: -1.85 | glycan array binding signal (z-score) [3]: -1.23 | glycan array binding signal (z-score) [4]: 1.06 | glycan array binding signal (z-score) [5]: -0.881 | glycan array binding signal (z-score) [6]: 0.193 | glycan array binding signal (z-score) [7]: -0.415 | glycan array binding signal (z-score) [8]: -0.224 | glycan array binding signal (z-score) [9]: -0.913 | glycan array binding signal (z-score) [10]: 1.97 | glycan array binding signal (z-score) [11]: 0.357 | glycan array binding signal (z-score) [12]: 3.95 | glycan array binding signal (z-score) [13]: 3.86 | glycan array binding signal (z-score) [14]: -0.512 | glycan array binding signal (z-score) [15]: 1.06 | glycan array binding signal (z-score) (Neu5Ac(a2-3)GalNAc): 0.015 | glycan array binding signal (z-score) [16]: -0.863 | glycan array binding signal (z-score) [17]: -0.448 | glycan array binding signal (z-score) [18]: -0.255 | glycan array binding signal (z-score) [19]: 0.174 | glycan array binding signal (z-score) [20]: 0.542 | glycan array binding signal (z-score) (Neu5Ac(a2-6)Gal): -0.159 | glycan array binding signal (z-score) [21]: -0.951 | glycan array binding signal (z-score) (Neu5Ac(a2-6)Gal(b1-4)Glc): 0.643 | glycan array binding signal (z-score) [22]: 0.241 | glycan array binding signal (z-score) [23]: -0.2 | glycan array binding signal (z-score) [24]: -0.062 | glycan array binding signal (z-score) [25]: -0.321 | glycan array binding signal (z-score) [26]: -0.527 | glycan array binding signal (z-score) [27]: -0.378 | glycan array binding signal (z-score) [28]: 2.21
